Experimental findings from patent publication US20230220093A1 (published 2023) are described below.

By UniProt entry, the sequences of proteins in these tests, tags left out. Residues count along the entry.
UniProt P02768, residues 25-609: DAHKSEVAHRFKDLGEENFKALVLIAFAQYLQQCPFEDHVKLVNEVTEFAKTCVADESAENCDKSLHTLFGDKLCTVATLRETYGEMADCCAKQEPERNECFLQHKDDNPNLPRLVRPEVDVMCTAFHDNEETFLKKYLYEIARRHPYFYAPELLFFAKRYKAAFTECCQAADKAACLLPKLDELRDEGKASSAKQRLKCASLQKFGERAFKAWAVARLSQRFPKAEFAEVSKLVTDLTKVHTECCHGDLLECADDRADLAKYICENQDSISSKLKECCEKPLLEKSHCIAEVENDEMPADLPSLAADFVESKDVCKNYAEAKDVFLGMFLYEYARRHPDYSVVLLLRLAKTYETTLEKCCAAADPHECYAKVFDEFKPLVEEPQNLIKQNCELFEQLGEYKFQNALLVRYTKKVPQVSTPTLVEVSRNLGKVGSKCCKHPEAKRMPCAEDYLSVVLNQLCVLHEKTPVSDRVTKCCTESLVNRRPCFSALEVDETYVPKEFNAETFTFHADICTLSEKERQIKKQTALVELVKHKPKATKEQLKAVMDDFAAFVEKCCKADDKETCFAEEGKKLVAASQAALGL

In experiment [1] the target is human serum albumin (HSA) (Sigma-Aldrich) (human) (UniProt P02768). Description: BLI, rhCD40L immobilised, then APB-A1, then HSA. In general terms: In BLI a coated tip is dipped into the sample, and binding shifts an interference pattern.
Experiment [2] has the same target. The experiment is described as follows: BLI.

Results are given in words; binding and its absence hold for the method and conditions named. Some binding calls cover weakened binding; strength is not graded here.

B1: APB-A1, recombinant antibody (anti-CD40L scFv)2-anti-HSA Fab (bispecific antibody)
heavy: DIVLTQSPATLSVSPGERATISCRASQRVSSSTYSYMHWYQQKPGQPPKLLIKYASNLESGVPARFSGSGSGTDFTLTISSVEPEDFATYYCQHSWEIPPTFGGGTKLEIKRGGGGSGGGGSGGGGSQVQLVQSGAEVVKPGASVKLSCKASGYIFTSYYMYWVKQAPGQGLEWIGEINPSNGDTNFNEKFKSKATLTVDKSASTAYMELSSLRSEDTAVYYCTRSDGRNDMDSWGQGTLVTVSSGGGGSGGGGSGGGGSQVQLVQSGGGPVKPGGSLRLSCAASGFMFRAYSMNWVRQAPGKGLEWVSSISSSGRYIHYADSVKGRFTISRDNAKNSLYLQMNSLRAEDTAVYYCARETVMAGKALDYWGQGTLVTVSSASTKGPSVFPLAPSSKSTSEGTAALGCLVKDYFPEPVTVSWNSGALTSGVHTFPAVLQSSGLYSLSSVVTVPSSSLGTQTYICNVNHKPSNTKVDKKVEPKSS
light: DIVLTQSPATLSVSPGERATISCRASQRVSSSTYSYMHWYQQKPGQPPKLLIKYASNLESGVPARFSGSGSGTDFTLTISSVEPEDFATYYCQHSWEIPPTFGGGTKLEIKRGGGGSGGGGSGGGGSQVQLVQSGAEVVKPGASVKLSCKASGYIFTSYYMYWVKQAPGQGLEWIGEINPSNGDTNFNEKFKSKATLTVDKSASTAYMELSSLRSEDTAVYYCTRSDGRNDMDSWGQGTLVTVSSGSTSGSGKPGSGEGSTKGDIVLTQSPGTLSLSPGETATLSCRASQSVGSNLAWYQQKPGQAPRLLIYGASTGATGVPARFSGSRSGTDFTLTITSLQPEDFATYYCQQYYSFLAKTFGQGTQLEIKRTVAAPSVFIFPPSDEQLKSGTASVVCLLNNFYPREAKVQWKVDNALQSGNSQESVTEQDSKDSTYSLSNTLTLSKADYEKHKVYACEVTHQGLSSPVTKSFNRGES
notes: also called (anti-hu5c8 scFv)2-SL335; (scFv)2-Fab
Consider B1, for which the binding result in experiment [1] and in experiment [2] was “binds” in each case.
